The series relates to human CD45+ cells (granulocytes-based progenitor cells). Put plainly: Colony forming test on granulocytes-based myelopoiesis progenitor cells, human CD45+ bone marrow cells of humanized Tg-NOG mouse. Format: cell-based. The conditions noted are these: for Ratio mouse/human (IC50): IC50 mCD45+ / IC50 hCD45+; for Ratio mouse/human (IC90): IC90 mCD45+ / IC90 hCD45+. The source says:
The mouse at week 14 after the transplantation of the hCD34^+ cells derived from the human cord blood was euthanized by removing the blood from the abdominal aorta under anesthesia of isoflurane. Then, the femur was collected. The femur was sterilely washed using the Iscove's Modified Dulbecco's Medium (IMDM, available from Life Technologies) to prepare a suspension of cells. The suspension of cells was passed through a nylon filter (pore size of 35 μm, Cell Strainer, available from BD Biosciences) to obtain a filtrate as a solution of the bone marrow cells. A portion of the solution of the bone marrow cells was subjected to FACS analysis to calculate a ratio between the human-derived leucocytes (hCD45^+) and the mouse-derived leucocytes (mCD45^+).
The human 45^+ cells were suspended in a methyl cellulose medium (MethoCult H4534, available from Stem cell technologies) so as to be 5×10^4 cells/1.1 mL/dish. Then, EHC was added at 0.14 nM, 0.4 nM, 1.2 nM, 3.7 nM, 11 nM, or 33 nM. Meanwhile, PTX was added at 0.12 nM, 0.4 nM, 1.1 nM, 3.3 nM, 10 nM, 30 nM, or 90 nM. The resultant was seeded in a dish and was cultured for 16 days at 37° C. under 5% CO2.
As the vehicle control, dimethyl sulfoxide (DMSO, final concentration of 0.002 v/v %) was used. For each concentration, two dishes were used.
After a period of the cultivation was completed, the number of the colonies derived from the granulocytes formed was counted and an average number of the colonies in each concentration was calculated. An average number of the colonies in the vehicle control was considered as 100%. The average number of the colonies in each concentration was considered as a relative value (IC50 and IC90). Here, the IC50 means a concentration at which formation of 50% of the colonies is inhibited and the IC90 means a concentration at which formation of 90% of the colonies is inhibited.
The collection, preparation, and cultivation of the bone marrow cells and the calculation of the percentage of inhibition of colony formation were performed in the same manner as in Example 3-1.
The human CD45^+ cells were exposed to nogitecan at an exposure concentration of 0.41 nM, 1.2 nM, 3.7 nM, 11.1 nM, 33.3 nM, or 100 nM. Meanwhile, the other human CD45^+ cells were exposed to oxaliplatin at an exposure concentration of 123 nM, 370 nM, 1,111 nM, 3,333 nM, 10,000 nM, or 30,000 nM.
A physiological saline solution was used for the vehicle control of nogitecan and a distilled water was used for the vehicle control of oxaliplatin.
An average number of the colonies in the vehicle control was considered as 100%. The average number of the colonies in each concentration was considered as a relative value (IC50 and IC90). Here, the IC50 means a concentration at which formation of 50% of the colonies is inhibited and the IC90 means a concentration at which formation of 90% of the colonies is inhibited.

Each structure is given as a SMILES string.

As to `CCc1c2c(nc3ccc(O)cc13)-c1cc3c(c(=O)n1C2)COC(=O)[C@]3(O)CC` [EHC, 7-Ethyl-10-hydroxycamptothecin], the “Ratio mouse/human (IC50)” value turned out to be 9.3 and the “Ratio mouse/human (IC90)” value is on record as 9.5.
Consider `CC[C@@]1(O)C(=O)OCc2c1cc1n(c2=O)Cc2cc3c(CN(C)C)c(O)ccc3nc2-1` [Nogitecan, nogitecan], for which the “Ratio mouse/human (IC50)” value was 16.3 and the “Ratio mouse/human (IC90)” value is listed as 12.5.
The corresponding values for `O=C1[O][Pt]2([NH][C@@H]3CCCC[C@H]3[NH]2)[O]C1=O` [Oxaliplatin, oxaliplatin] are 0.16 and 0.18.
Taken in the same sequence, the figures for `CC(=O)O[C@H]1C(=O)[C@@]2(C)[C@H]([C@H](OC(=O)c3ccccc3)[C@]3(O)C[C@H](OC(=O)[C@H](O)[C@@H](NC(=O)c4ccccc4)c4ccccc4)C(C)=C1C3(C)C)[C@]1(OC(C)=O)CO[C@@H]1C[C@@H]2O` [PTX, paclitaxel] were 0.8 and 1.0.

Source of the values: US20180289840A1, “Method for Evaluating Hematological Toxicity of Drug Under Evaluation, and Model for Evaluating Hematological Toxicity of Drug Under Evaluation” (Central Institute for Experimental Animals, priority 2015, published 2018).
